Assay [1] deals with T1, TvTim22 with C-terminal di-HA tag (TvTim22-HA) (Trichomonas vaginalis) (UniProt A2DDM1).
T1 sequence: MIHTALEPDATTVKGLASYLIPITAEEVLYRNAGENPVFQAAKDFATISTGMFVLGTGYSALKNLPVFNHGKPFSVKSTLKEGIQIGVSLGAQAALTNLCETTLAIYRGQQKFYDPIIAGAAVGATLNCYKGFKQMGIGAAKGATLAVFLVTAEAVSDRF
Kind of assay: affinity purification with mass spectrometry; native coIP of TvTim22-HA from isolated hydrogenosomes, crosslinker omitted; anti-HA Dynabeads; LFQ-MS against the parent strain.

Assay [2] concerns the target T1, TvTim22 with C-terminal di-HA tag (TvTim22-HA) (Trichomonas vaginalis). Kind of assay: affinity purification with mass spectrometry; TvTim22-HA complex from hydrogenosomes lysed with 1% digitonin or 1% Triton X-100, no crosslinker, anti-HA Dynabeads, eluted with HA peptide, Superose 6 size exclusion (132 kDa peak), SDS-PAGE, gel bands identified by MS.
Assay [3] deals with T2, TvTim23 with C-terminal di-HA tag (Trichomonas vaginalis) (UniProt A2E7V5).
T2 sequence: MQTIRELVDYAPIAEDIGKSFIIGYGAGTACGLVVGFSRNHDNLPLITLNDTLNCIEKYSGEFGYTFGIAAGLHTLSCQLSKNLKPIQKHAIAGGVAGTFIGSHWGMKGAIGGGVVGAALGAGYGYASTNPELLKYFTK
Kind of assay: affinity purification with mass spectrometry; isolated hydrogenosomes from strains expressing an HA-tagged TvTim17 family bait, crosslinked with 1 mM DSP (30 min, 25 °C), lysed in TSG buffer pH 7.2 with 1% digitonin or 1% Triton X-100; anti-HA Dynabeads; LFQ-MS against the non-transformed parent strain (FDR 0.05, S=1).

Assay [4] has as its target T1, TvTim22 with C-terminal di-HA tag (TvTim22-HA) (Trichomonas vaginalis). The description is as above.
The target in assay [5] is T3, TvTim23-like with C-terminal di-HA tag (Trichomonas vaginalis) (UniProt A2DXD3).
T3 sequence: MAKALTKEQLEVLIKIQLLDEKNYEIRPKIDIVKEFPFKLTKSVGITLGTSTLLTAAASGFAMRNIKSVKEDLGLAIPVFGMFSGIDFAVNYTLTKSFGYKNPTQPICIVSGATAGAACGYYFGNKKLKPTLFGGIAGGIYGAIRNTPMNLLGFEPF
The assay is described as above.

Assay [6] deals with T4, TvTim17-like with C-terminal di-HA tag (Trichomonas vaginalis) (UniProt A2DS29).
T4 sequence: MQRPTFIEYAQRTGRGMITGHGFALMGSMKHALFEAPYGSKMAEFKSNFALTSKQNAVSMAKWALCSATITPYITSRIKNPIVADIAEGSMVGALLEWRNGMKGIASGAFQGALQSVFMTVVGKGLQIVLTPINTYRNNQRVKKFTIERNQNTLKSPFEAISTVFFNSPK
Described as above.

The target in assay [7] is T5, TvTim22-like with C-terminal di-HA tag (Trichomonas vaginalis) (UniProt A2FHN8).
T5 sequence: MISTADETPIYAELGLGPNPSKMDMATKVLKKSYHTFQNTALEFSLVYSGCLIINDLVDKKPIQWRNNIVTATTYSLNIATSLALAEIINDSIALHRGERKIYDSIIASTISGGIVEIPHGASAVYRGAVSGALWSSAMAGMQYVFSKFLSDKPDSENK
The description is as above.

These are yes or no findings as the source states them, for the method shown. Binding seen in cells or lysates may run through a third protein. These calls come from enrichment with a bait or labelling near it, and not all partners need be listed. For some assays here: A no says only that the protein was not detected with the bait. Sequences can lack the tags named with a protein.

Consider Hsp70-1, for which the binding entry in assay [1], in assay [2], in assay [3] and in assay [4] was “binds” throughout.

For Pam16, the binding result in assay [1], in assay [5] and in assay [4] was “binds” each time.

Turning to Pam18, the binding result in assay [1], in assay [3] and in assay [4] was “binds” throughout.

Turning to Tim9-10A, the binding entry in assay [6] was “no binding”.

For the molecule Tim9-10B, in assay [6], the binding entry is recorded as “no binding”.

For the molecule Tim9-10C, in assay [6], the binding entry is “no binding”.

With Tim9-10D, the binding entry in assay [6] is reported as “no binding”.

“hydrogenosomal processing peptidase (HPP), α subunit”: the binding result in assay [1] and in assay [4] was “binds” each time.

With “hydrogenosomal processing peptidase (HPP), β subunit”, the binding result in assay [1] and in assay [4] was “binds” throughout.

B1: AAC1 (endogenous) (protein, UniProt A0A8U0WPE5 1-316)
chain: MAQPAEQILIATSPKPSLSPVERLSVGFIAGTLSRTLTSPLDVVKMLMQVSSRGGSAKDTIAQLWKEQGIAGFWRGNWAACIRLGPQSAIKFYAYEELEKRIGKGKPLVGIQRTVFGSLSGVISQVLTYPLDVIRTRITVYSGKYTGIFNCAFTMLKEEGFTSLFAGIVPTVMGVIPYEGAQFYAYGGLKQLYTTKIAPGKPISPWANCLIGAAAGMFSQTFSYPFDVIRKRMMLKDEKGKPIYSGMMQAFSTVYAKEGVAGLYRGVGLNLIKVVPFAALQFTILEETRRAFFKVRAAIDQKKVEEIKGKVAPKKK
For the molecule B1, the binding result in assay [1] and in assay [4] was “binds” in each case.

B2: Tim44 (endogenous) (protein, UniProt A2F7V1 1-326)
chain: MISTLSQHGGFSGVRYASVFTNFMDNIGRNLSENQEVTTWMNGLKNDPLVKLTAGVVEEAAFYGKTALNAGTAITKVAVWPITYPLSFIIKKNPYTLVPCPFPAAQVSFEVESKGDLVLRKQNLIEKFIYKLKNVKNAASVSKNAFIRVPFQALANASSVVVSKLTQPSKEQLVQMSIQMYYPTFTISEFKQWIEKSFLPVLLERYLRGNIKQLEELTSQQVAKERQLAVVQFLSNRLIIRTKLLSITDVDIMGFDFTNRMPSILVRCSADHTNEVITMNSGTIVEGGPQDICHTDFLVVLTIDASKDTPRWIASELRPDSTSNRI
For the molecule B2, the binding entry in assay [1], in assay [2], in assay [3] and in assay [4] was “binds” throughout.

B3: TvTim23 with C-terminal di-HA tag (protein, UniProt A2E7V5 1-139)
chain: T2 sequence
With B3, in assay [5], the binding entry is “binds”.

B4: TvTim22 with C-terminal di-HA tag (TvTim22-HA) (protein, UniProt A2DDM1 1-160)
chain: T1 sequence
As for B4, in assay [5], the binding entry is listed as “binds”.

B5: TvTim23-like with C-terminal di-HA tag (protein, UniProt A2DXD3 1-157)
chain: T3 sequence
For B5, the binding entry in assay [1], in assay [3] and in assay [4] was “binds” each time.

B6: TvTim17-like with C-terminal di-HA tag (protein, UniProt A2DS29 1-170)
chain: T4 sequence
Take B6: the binding entry in assay [1], in assay [2], in assay [3], in assay [5], in assay [4] and in assay [7] was “binds” throughout.
